Measured values taken from article PMC8719716.
Residue numbers refer to the chain shown, from its start. Results are given in words; binding and its absence hold for the method and conditions named. In cells and extracts the contact can be indirect. For part of these data: A result given as binding can be weak or reduced; the word gives no strength. For part of these data: Sequences can lack the tags named with a protein.

Columns and labels:
Test in all cases: co-IP; Xenopus embryos injected with mRNAs at the one-cell stage, harvested at stages 11–12, lysed in TNSG buffer (50 mM Tris-HCl pH 7.4, 150 mM NaCl, 1% NP-40, 10% glycerol) with protease and phosphatase inhibitors; anti-V5, anti-Flag M2 or anti-HA agarose, 6–8 h at 4°C; reciprocal
[1] = biological target: T1, X. laevis CEP97 WT, exogenous, tag not named for the experiment (X. laevis) (UniProt Q6GPJ8)
T1 sequence: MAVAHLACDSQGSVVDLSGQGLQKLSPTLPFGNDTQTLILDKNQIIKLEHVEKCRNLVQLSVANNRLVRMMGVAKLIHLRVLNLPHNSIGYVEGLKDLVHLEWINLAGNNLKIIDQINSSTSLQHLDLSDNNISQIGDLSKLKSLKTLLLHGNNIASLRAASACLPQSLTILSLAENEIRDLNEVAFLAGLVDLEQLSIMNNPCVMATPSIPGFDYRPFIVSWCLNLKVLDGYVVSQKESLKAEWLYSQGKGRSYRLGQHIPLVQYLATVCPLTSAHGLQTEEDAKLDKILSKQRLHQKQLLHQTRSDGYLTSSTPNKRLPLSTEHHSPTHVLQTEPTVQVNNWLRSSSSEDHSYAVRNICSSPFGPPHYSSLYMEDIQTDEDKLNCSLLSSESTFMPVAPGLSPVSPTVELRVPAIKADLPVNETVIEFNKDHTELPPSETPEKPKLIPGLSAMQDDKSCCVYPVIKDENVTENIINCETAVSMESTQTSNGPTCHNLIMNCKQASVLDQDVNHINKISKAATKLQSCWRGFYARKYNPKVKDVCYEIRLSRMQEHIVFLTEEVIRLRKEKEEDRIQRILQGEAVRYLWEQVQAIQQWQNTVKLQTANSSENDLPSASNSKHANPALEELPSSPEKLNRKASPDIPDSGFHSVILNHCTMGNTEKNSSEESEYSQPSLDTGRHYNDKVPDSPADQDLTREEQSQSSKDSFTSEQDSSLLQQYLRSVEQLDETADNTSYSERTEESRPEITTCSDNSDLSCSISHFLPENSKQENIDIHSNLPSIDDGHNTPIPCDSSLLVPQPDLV

[2] = biological target: T2, X. laevis CEP97 phospho-null mutant (SA; S634A, S643A, S649A, and S653A) (X. laevis) (UniProt Q6GPJ8)
T2 sequence: T1 sequence with S634A, S643A, S649A, S653A

[3] = biological target: T3, X. laevis CEP97-HA (X. laevis) (UniProt Q6GPJ8)
T3 sequence: T1 sequence

Substance | binding [1] | binding [2] | binding [3]
X. laevis Plk1 PB domains alone (PB) (domain or fragment) | binds | no binding | 
X. laevis Dyrk1a ΔC mutant (domain or fragment) |  |  | binds
